Results reported in publication PMC12223475, “Two Key Ferredoxins for Nitrogen Fixation Have Different Specificities and Biophysical Properties” (Chemistry (Weinheim an Der Bergstrasse, Germany), 2025).
These are yes or no findings as the source states them, for the method shown.

Protein sequences, listed by entry. Tags and fused reporters are not part of them. Residues count along the entry.
UniProt D5ARY7, residues 2-95: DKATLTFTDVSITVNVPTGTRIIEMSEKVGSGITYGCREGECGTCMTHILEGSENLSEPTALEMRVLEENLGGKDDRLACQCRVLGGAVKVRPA

Biological target: Rhodobacter capsulatus ferredoxin C (FdC), strep-tagged (R. capsulatus) (UniProt D5ARY7)
Experiment: SEC; Superdex75 10/300 GL, low-salt buffer (50 mM Tris, 150 mM NaCl, 10% glycerol, pH 7.8), anaerobic; MW from a standard curve of LMW calibration mix; both purified

- binding: no binding
Substance: Rhodobacter capsulatus ferredoxin C (FdC), strep-tagged (from UniProt D5ARY7 2-95)
